Results taken from the supplement of paper PMC12819154, “High-throughput peptide-centric local stability assay extends protein–ligand identification to membrane proteins, tissues and bacteria” (Nature Structural & Molecular Biology, 2025).
Some of the results follow. Small differences around the control level are noise.

The chains behind the UniProt entries cited, without tags or fusion partners. Where a name states a change or a piece, a line headed by the entry shows the natural chain unless it says otherwise.
UniProt O15446, whole entry: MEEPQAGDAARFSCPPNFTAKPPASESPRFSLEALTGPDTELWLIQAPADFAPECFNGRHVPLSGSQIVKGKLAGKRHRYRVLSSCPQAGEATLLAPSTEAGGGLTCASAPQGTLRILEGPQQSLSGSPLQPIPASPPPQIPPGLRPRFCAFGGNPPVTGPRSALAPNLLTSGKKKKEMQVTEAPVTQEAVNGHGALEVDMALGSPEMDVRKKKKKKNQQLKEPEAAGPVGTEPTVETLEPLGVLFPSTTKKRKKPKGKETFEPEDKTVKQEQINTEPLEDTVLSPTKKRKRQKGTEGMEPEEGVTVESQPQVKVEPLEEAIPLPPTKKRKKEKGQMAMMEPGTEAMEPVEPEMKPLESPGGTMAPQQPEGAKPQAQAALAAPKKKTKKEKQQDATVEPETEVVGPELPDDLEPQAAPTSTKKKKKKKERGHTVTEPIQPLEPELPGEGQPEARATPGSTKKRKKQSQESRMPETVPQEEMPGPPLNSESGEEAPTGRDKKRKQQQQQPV
UniProt O00505, whole entry: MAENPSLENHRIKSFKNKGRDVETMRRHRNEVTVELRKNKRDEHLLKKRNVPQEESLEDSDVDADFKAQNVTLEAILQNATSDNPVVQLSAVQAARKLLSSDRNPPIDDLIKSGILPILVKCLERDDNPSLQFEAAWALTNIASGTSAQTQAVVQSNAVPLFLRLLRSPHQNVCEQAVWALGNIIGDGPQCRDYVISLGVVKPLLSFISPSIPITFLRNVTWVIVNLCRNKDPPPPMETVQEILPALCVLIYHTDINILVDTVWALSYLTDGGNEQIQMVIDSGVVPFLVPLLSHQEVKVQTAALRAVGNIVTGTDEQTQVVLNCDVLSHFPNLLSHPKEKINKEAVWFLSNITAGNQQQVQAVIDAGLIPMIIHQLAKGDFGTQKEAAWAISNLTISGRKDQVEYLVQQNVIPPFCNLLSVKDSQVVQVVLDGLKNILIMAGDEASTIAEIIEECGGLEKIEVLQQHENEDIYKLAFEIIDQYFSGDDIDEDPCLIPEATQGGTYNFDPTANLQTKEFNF
UniProt O15519, whole entry, looked up: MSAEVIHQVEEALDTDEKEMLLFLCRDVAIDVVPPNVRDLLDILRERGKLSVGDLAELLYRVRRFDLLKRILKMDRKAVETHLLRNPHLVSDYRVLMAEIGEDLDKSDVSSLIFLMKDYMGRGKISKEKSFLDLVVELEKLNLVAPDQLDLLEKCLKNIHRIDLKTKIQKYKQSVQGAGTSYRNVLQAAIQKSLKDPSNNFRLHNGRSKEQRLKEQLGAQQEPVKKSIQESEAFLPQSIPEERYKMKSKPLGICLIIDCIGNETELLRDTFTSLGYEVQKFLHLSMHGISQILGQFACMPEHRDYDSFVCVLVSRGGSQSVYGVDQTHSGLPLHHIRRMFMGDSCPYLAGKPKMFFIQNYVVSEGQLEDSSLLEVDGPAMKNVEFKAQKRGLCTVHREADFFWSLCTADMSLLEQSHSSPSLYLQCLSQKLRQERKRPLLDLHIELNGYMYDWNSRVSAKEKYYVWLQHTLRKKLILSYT
UniProt O15392, whole entry: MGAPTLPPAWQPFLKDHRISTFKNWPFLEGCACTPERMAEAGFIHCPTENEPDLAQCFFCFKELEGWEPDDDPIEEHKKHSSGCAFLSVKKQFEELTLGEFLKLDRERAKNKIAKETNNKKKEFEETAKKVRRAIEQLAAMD
UniProt O15173: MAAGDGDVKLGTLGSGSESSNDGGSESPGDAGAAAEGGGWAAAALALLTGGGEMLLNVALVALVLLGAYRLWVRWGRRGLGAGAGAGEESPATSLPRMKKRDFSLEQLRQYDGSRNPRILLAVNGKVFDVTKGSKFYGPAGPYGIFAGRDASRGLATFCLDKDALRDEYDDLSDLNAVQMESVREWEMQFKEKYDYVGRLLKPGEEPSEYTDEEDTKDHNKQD
UniProt O15347: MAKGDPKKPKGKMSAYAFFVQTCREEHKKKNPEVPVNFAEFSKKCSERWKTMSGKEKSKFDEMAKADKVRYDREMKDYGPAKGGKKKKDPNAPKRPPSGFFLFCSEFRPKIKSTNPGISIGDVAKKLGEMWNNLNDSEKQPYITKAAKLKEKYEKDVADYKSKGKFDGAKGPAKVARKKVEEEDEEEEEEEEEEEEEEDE
UniProt O15523: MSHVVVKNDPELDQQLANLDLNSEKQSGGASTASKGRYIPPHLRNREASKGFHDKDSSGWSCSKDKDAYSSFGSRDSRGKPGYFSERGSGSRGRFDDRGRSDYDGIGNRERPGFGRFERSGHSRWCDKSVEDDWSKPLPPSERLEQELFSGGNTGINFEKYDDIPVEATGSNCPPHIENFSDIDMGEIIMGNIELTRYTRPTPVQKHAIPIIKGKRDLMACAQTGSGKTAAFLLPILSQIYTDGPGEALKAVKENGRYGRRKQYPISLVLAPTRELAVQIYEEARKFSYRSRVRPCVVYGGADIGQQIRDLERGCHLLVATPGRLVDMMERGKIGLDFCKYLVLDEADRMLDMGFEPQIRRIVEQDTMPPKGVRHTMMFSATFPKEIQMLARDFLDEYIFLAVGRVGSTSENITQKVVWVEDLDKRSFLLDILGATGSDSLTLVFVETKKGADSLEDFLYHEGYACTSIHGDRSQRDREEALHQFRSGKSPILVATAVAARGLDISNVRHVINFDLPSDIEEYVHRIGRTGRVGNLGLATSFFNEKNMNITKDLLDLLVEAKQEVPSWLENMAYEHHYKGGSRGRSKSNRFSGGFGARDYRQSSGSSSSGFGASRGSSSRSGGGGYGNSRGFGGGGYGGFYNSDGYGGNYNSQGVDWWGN
UniProt O14593: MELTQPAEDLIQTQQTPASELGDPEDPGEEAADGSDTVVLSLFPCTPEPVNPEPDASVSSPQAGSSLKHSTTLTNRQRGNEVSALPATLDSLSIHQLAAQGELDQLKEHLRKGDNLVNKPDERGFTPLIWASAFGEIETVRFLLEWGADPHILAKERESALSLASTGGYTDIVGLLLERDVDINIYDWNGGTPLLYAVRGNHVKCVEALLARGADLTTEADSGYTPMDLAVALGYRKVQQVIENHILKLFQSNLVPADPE

Compound: Cc1nc(Nc2ncc(C(=O)Nc3c(C)cccc3Cl)s2)cc(N2CCN(CCO)CC2)n1 [dasatinib]
Experiment: log2 fold change of tryptic peptide abundance, ligand vs vehicle (limited proteolysis) (log2 ratio); higher = more trypsin-susceptible (destabilized)
Conditions: ligand concentration: 5 uM; sample: K562 cleared lysate

Q: Which log2 fold change does the source give for “CD3EAP (peptide sequence: GKETFEPEDKTVK, peptide start residue: 258) (UniProt O15446)” here?
A: -0.7

Q: Which log2 fold change does the source give for “KPNA3 (peptide sequence: RDEHLLKK, peptide start residue: 41) (UniProt O00505)” here?
A: -0.798

Q: “CFLAR (peptide sequence: DVAIDVVPPNVR, peptide start residue: 27) (UniProt O15519)” was tested. Which log2 fold change did it give?
A: 0.17

Q: Which log2 fold change does the source give for “BIRC5 (peptide sequence: RAIEQLAAMD, peptide start residue: 133) (UniProt O15392)” here?
A: -0.24

Q: With “PGRMC2 (peptide sequence: EKYDYVGR, peptide start residue: 192) (UniProt O15173)” as the target, how does the log2 fold change read?
A: -0.396

Q: Which log2 fold change does the source give for “BCKDK (peptide sequence: LVRYFLDK, peptide start residue: 185) (UniProt O14874)” here?
A: 0.207

Q: How did the log2 fold change turn out when “HMGB3 (peptide sequence: PKGKMSAYAFFVQTCR, peptide start residue: 9) (UniProt O15347)” was run?
A: 0.759

Q: With “UniProt O15523 (peptide sequence: MLDMGFEPQIR, peptide start residue: 253)” as the target, how does the log2 fold change read?
A: -0.122

Q: With “RFXANK (peptide sequence: KGDNLVNKPDER, peptide start residue: 112) (UniProt O14593)” as the target, how does the log2 fold change read?
A: -0.144
